Some results were stated once for a whole list of compounds, not compound by compound.
target: T1, neuronal nitric oxide synthase (Rattus norvegicus, UniProt P29476); assay: Screen for neuronal nitric oxide synthase inhibiting activity (Screen A); type: biochemical; conditions: neuronal isoform, rat hippocampus or cerebellum supernatant
T1 construct: Enzyme was isolated from rat hippocampus or cerebellum; from tissue; host or cells: cerebellum or hippocampus of male Sprague-Dawley rat (20,000 g supernatant)

IC50, < 10 µM:
CCSC(=N)Nc1ccc(CCNCc2cccc(Cl)c2)cc1 [Example 3, N-(4-(2-(3-Chlorobenzylamino)ethyl)phenyl)carbamimidothioic acid ethyl ester dimethanesulfonate]
CC(C)SC(=N)Nc1ccc(CCN(C)Cc2ccccc2)cc1 [Example 2, N-(4-(2-((Phenylmethyl)(methyl)amino)ethyl)phenyl)carbamimidothioic acid isopropyl ester dimaleate]
CCSC(=N)Nc1ccc(CCN2CCc3ccccc3C2)cc1 [Example 4, N-(4-(2-(1,2,3,4-Tetrahydroisoquinolin-2-yl)ethyl)phenyl)carbamimidothioic acid ethyl ester dimaleate]

— US5721247A, “Isothiourea derivatives useful in therapy” (priority 1994, dated 1998)
